Reference: patent US20240287131A1, “PEPTIDE” (AGC Inc., priority 2021, published 2024)
Part of at least one peptide drawing is inferred or uncertain, most often the ends.

Key:
[1] = system: HeLa cells; assay: Evaluation of ability to permeate cell membrane (uptake into cells, flow cytometry of Alexa Fluor 647 fluorescence); type: cell-based; settings: 1.5 μM sample solution, 37° C., 1 hour; for average value of the fluorescence intensities of Alexa Fluor 647 in cells (MFI) relative to cells treated with the fluorescent dye 1: ratio to fluorescent dye 1
[2] = Particle size by the dynamic light scattering method; type: physicochemical; settings: 1.5 μM in pure water, 37° C., DLS
[3] = system: HeLa cells; assay: Cell membrane permeability test in the presence of FBS (flow cytometry); type: cell-based; settings: presence of 10% FBS, 1.5 μM, 37° C., 1 hour; compared with peptide fluorescent conjugate 3
[4] = compared with cells treated with the fluorescent dye 1
[5] = compared with cells treated with the fluorescent dye 1 or TAT-Alexa

SMILES | fluorescence intensity of Alexa Fluor 647 in cells (flow cytometry) [1, 4] | average value of the fluorescence intensities of Alexa Fluor 647 in cells (MFI) relative to cells treated with the fluorescent dye 1 [1] | fluorescence intensity of Alexa Fluor 647 in cells (flow cytometry) [1, 5] | average particle size (average diameter of number-based distribution) [2] | mean fluorescence intensity (MFI) of Alexa Fluor 647 in cells [3]
COC(=O)[C@H](Cc1ccccc1)NC(=O)[C@H](NC(=O)[C@H](C)NC(=O)CCCCCC1(C)C(/C=C/C=C/C=C2\N(CCCS(=O)(=O)O)c3ccc(S(=O)(=O)O)cc3C2(C)C)=[N+](CCCS(=O)(=O)[O-])c2ccc(S(=O)(=O)O)cc21)C(F)(F)C(F)(F)C(F)(F)C(F)(F)C(F)(F)C(F)(F)C(F)(F)C(F)(F)F (stereo partly drawn) [peptide fluorescent conjugate 5, Alexa-Ala-[(S)-RFAA(C8)]-Phe-OMe, reference compound] | higher | about several times greater | – | – | –
C[C@H](NC(=O)CCCCCC1(C)C(/C=C/C=C/C=C2\N(CCCS(=O)(=O)O)c3ccc(S(=O)(=O)O)cc3C2(C)C)=[N+](CCCS(=O)(=O)[O-])c2ccc(S(=O)(=O)O)cc21)C(=O)N[C@@H](CC(=O)Nc1ccc(CCC(F)(F)C(F)(F)C(F)(F)C(F)(F)C(F)(F)C(F)(F)F)cc1)C(=O)N[C@@H](Cc1ccccc1)C(N)=O (stereo partly shown) [peptide fluorescent conjugate 12, Alexa-Ala-Asp(CH2CH2C6F13)-Phe-NH2] | higher | about 14 times | – | – | –
C[C@H](NC(=O)CCCCCC1(C)C(/C=C/C=C/C=C2\N(CCCS(=O)(=O)O)c3ccc(S(=O)(=O)O)cc3C2(C)C)=[N+](CCCS(=O)(=O)[O-])c2ccc(S(=O)(=O)O)cc21)C(=O)N[C@@H](CC(=O)Nc1cc(C(F)(F)C(F)(F)C(F)(F)C(F)(F)F)cc(C(F)(F)C(F)(F)C(F)(F)C(F)(F)F)c1)C(=O)N[C@@H](Cc1ccccc1)C(N)=O (stereo partly shown) [peptide fluorescent conjugate 2, Alexa-Ala-Asp(bis-C4F9)-Phe-NH2] | – | several tens to several hundreds of times greater | higher | – | –
C[C@H](NC(=O)CCCCCC1(C)C(/C=C/C=C/C=C2\N(CCCS(=O)(=O)O)c3ccc(S(=O)(=O)O)cc3C2(C)C)=[N+](CCCS(=O)(=O)[O-])c2ccc(S(=O)(=O)O)cc21)C(=O)N[C@@H](CC(=O)Nc1ccc(C(F)(F)C(F)(F)C(F)(F)C(F)(F)C(F)(F)C(F)(F)C(F)(F)C(F)(F)F)cc1)C(=O)N[C@@H](Cc1ccccc1)C(N)=O (stereo partly shown) [peptide fluorescent conjugate 1, Alexa-Ala-Asp(C8F17)-Phe-NH2] | higher | several tens to several hundreds of times greater | higher | about 6 nm | higher
COC(=O)[C@H](Cc1ccccc1)NC(=O)C(NC(=O)[C@H](C)NC(=O)CCCCCC1(C)C(/C=C/C=C/C=C2\N(CCCS(=O)(=O)O)c3ccc(S(=O)(=O)O)cc3C2(C)C)=[N+](CCCS(=O)(=O)[O-])c2ccc(S(=O)(=O)O)cc21)C(F)(F)C(F)(F)C(F)(F)C(F)(F)C(F)(F)C(F)(F)C(F)(F)C(F)(F)F (stereo partly drawn) [peptide fluorescent conjugate 4, Alexa-Ala-[(R)-RFAA(C8)]-Phe-OMe, reference compound] | higher | about several times greater | – | – | –
